Assay results published in article PMC5727025.
These are yes or no findings as the source states them, for the method shown. In cells and extracts the contact can be indirect. Some results given as binding are weak or reduced against the parent protein; the word gives no strength.

Legend:
[1] = target: T1, Interferon regulatory factor 8 (IRF8) (mouse (endogenous in Th9 cells)) (UniProt P23611); assay: proximity ligation; in situ PLA in fixed, permeabilised murine Th9 cells after 24 h of differentiation; dots counted by microscopy
T1 sequence: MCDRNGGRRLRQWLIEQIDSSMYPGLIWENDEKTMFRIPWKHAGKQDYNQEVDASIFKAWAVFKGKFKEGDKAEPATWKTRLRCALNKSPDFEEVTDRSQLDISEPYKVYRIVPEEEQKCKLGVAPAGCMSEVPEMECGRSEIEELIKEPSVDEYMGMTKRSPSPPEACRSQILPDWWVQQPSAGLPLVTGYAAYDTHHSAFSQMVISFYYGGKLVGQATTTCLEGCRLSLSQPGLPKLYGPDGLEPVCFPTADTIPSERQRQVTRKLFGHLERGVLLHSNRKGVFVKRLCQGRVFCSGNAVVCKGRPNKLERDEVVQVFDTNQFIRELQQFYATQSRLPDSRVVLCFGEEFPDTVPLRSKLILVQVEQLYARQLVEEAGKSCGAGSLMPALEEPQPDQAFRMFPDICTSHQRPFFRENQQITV

[2] = target: T2, Interferon regulatory factor 4 (IRF4) (mouse (endogenous in Th9 cells)) (UniProt Q64287); assay: as above
T2 sequence: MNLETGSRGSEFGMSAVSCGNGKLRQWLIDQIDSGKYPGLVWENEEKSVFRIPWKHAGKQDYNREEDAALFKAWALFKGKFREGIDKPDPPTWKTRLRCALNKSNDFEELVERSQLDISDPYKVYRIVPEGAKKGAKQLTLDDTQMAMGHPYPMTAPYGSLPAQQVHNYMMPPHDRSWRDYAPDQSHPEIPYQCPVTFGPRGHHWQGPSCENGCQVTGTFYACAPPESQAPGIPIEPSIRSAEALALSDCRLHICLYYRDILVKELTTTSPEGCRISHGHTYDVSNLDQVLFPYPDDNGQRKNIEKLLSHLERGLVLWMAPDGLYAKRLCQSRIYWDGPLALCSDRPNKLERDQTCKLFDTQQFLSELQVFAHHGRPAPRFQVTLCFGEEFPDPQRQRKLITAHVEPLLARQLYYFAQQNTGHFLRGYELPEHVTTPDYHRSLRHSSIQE

B1: BATF (basic leucine zipper transcription factor, ATF-like) (protein, UniProt O35284 1-125)
chain: MPHSSDSSDSSFSRSPPPGKQDSSDDVRKVQRREKNRIAAQKSRQRQTQKADTLHLESEDLEKQNAALRKEIKQLTEELKYFTSVLSSHEPLCSVLASGTPSPPEVVYSAHAFHQPHISSPRFQP
- binding [1]: binds
- binding [2]: binds
